These are yes or no findings as the source states them, for the method shown. Some entries that bind do so weakly or less than the wild type.
Target: lipocalin mutein of SEQ ID NO: 1
Test: solution competition ELISA: fixed SEQ ID NO: 1 pre-incubated with titrated ligand, free SEQ ID NO: 1 captured on immobilised biotinylated hIL-17A

The chains behind the UniProt entries cited, without tags or fusion partners. Where a name states a change or a piece, a line headed by the entry shows the natural chain unless it says otherwise. A line that says so, or that is headed by a name, gives the form on record, which may keep a tag or linker.
cynomolgus monkey IL-17A (A0A2K5TTB0, form named): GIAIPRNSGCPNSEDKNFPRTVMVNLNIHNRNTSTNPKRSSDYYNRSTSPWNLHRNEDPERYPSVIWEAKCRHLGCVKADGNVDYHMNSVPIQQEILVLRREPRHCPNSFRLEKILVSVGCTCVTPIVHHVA

binding	Substance
binds	cynomolgus monkey IL-17A (from UniProt A0A2K5TTB0 24-155) (ligand)
binds	marmoset IL-17A (from UniProt A0ACM8QD00 24-153) (ligand)
